Test results from US20070218504A1, “HUMAN LEPTIN-DERIVED POLYPEPTIDES AND USES THEREOF” (UNIVERSITY OF PITTSBURGH, priority 2006, published 2007).
At least one structure is not confirmed: it was looked up by name or label, or the drawing left a doubt.

Test system: CRP
Test: Leptin's effect on CRP secretion and expression in human hepatocytes (Western, real-time RT-PCR)
Type: cell-based
Settings: human primary hepatocytes, pre-incubation before leptin
Source text: Human hepatocytes were isolated from donor livers. Briefly, the livers were perfused in a three-step process. A calcium-free buffer supplemented with EGTA is used to break […] junctions, which is followed by the same perfusion buffer without EGTA. Finally, a calcium-containing buffer supplemented with digestive enzymes (collagenase and DNase) was used. Following digestion, parenchymal hepatocytes were isolated by three steps of low-speed centrifugation. Cells with a viability of at least 85% were plated and cultured in hepatocytes maintenance medium (HMM) (Cambrex BioScience, Walkersville, Md.) supplemented with 10% fetal bovine serum (FBS), 0.1 μM dexamethasone, 0.1 μM insulin, and 50 μg/ml gentamicin on collagen-coated tissue culture dishes for 2-4 hours. The cells were subsequently cultured in the above medium without FBS.
Approximately 24 hours after seeded, the hepatocytes were washed with serum-free HMM supplemented with 0.1 μM dexamethasone and 0.1 μM insulin, and then cultured in the same medium for another 48 hours. Subsequently, the cells were switched to serum-free HMM supplemented with 0.1 μM dexamethasone before stimulated with leptin (NHPP) or rhIL-6 (R&D Systems, Minneapolis, Minn.) for 24 hours or 48 hours. […]
CRP mRNA expression was measured by quantitative real-time RT-PCR. […]

Compound: O=c1cc(N2CCOCC2)oc2c(-c3ccccc3)cccc12 [LY294002, reference compound]
- effect of pre-incubation on leptin-induced CRP expression: completely blocked
